Test results: patent US20230030032A1 (AGGAMIN, published 2023)
These are yes or no findings as the source states them, for the method shown. Some results given as binding are weak or reduced against the parent protein; the word gives no strength.

T1: soluble Endoglin (sEng), recombinant, as spiked or purified protein (human) (UniProt P17813)
T1 sequence (looked up): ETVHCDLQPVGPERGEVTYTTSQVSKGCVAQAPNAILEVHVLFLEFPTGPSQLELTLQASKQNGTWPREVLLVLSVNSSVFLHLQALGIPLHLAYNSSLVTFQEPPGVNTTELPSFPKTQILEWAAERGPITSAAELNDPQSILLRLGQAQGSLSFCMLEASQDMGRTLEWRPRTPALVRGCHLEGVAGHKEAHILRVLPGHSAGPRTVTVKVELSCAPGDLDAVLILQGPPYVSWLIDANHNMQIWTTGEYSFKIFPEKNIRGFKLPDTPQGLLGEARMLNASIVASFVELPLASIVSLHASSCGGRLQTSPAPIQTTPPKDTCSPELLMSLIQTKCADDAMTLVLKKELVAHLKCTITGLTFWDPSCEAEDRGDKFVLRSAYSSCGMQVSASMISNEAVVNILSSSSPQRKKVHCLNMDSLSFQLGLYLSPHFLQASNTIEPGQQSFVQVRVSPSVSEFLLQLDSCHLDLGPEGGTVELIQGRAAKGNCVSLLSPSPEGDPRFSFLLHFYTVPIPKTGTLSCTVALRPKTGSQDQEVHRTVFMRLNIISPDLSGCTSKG

T2: endogenous sEng in pooled serum of pre-eclampsia patients (human) (UniProt P17813)
T2 sequence (looked up): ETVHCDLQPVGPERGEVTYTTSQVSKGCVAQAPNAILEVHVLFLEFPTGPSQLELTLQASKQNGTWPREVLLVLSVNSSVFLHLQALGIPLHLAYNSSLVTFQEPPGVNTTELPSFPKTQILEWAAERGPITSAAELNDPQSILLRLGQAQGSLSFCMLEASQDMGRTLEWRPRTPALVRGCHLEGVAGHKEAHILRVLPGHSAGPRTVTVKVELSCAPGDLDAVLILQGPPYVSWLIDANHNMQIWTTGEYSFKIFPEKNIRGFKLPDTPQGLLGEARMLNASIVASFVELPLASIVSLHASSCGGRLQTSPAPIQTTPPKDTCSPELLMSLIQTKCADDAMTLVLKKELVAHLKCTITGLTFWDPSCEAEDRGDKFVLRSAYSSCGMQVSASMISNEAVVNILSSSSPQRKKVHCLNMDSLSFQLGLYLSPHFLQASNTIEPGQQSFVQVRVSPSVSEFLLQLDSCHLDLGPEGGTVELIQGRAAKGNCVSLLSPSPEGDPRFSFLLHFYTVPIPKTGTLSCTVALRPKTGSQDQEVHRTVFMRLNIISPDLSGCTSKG


Tests used:
[1] = target: T1, soluble Endoglin (sEng), recombinant, as spiked or purified protein (human); assay: analytical size exclusion chromatography, Superdex 200, 1-2 uM proteins
[2] = target: T1, soluble Endoglin (sEng), recombinant, as spiked or purified protein (human); assay: sandwich ELISA, coated cENG10 (4 ug/mL), preformed Bmp9-sEng complex 0.02 to 20 nM, anti-Bmp9 detection
[3] = target: T1, soluble Endoglin (sEng), recombinant, as spiked or purified protein (human); assay: SEC and ELISA, summary of Example 8
[4] = target: T1, soluble Endoglin (sEng), recombinant, as spiked or purified protein (human); assay: sandwich ELISA: cENG10 coated at 4 ug/mL, serial dilutions of preformed equimolar Bmp9/sEng complex, bound Bmp9 detected with biotinylated anti-Bmp9 antibody and an HRP conjugate
[5] = target: T1, soluble Endoglin (sEng), recombinant, as spiked or purified protein (human); assay: depletion of sEng spiked in serum (60 ng/ml, 10 ml) by a 1 ml column of antibody covalently coupled to CNBr-Sepharose 4FF at 0.2 mg per ml beads; sEng in input and flow-through by ELISA; volumetric flow rate varied
[6] = target: T1, soluble Endoglin (sEng), recombinant, as spiked or purified protein (human); assay: ELISA, wells coated with 2 ug/ml sEng, anti-human Fc HRP detection
[7] = target: T1, soluble Endoglin (sEng), recombinant, as spiked or purified protein (human); assay: ELISA: wells coated with 2 ug/ml sEng, serial dilutions of cENG10, detected with HRP-conjugated polyclonal anti-human IgG Fc
[8] = target: T1, soluble Endoglin (sEng), recombinant, as spiked or purified protein (human); assay: depletion of sEng spiked in horse serum by a 1 ml column of antibody covalently coupled at 0.2 mg per ml beads; sEng in input and flow-through by ELISA; residence time varied
[9] = target: T1, soluble Endoglin (sEng), recombinant, as spiked or purified protein (human); assay: 1 ml column, 0.2 mg cENG10/ml beads, 60 ng/ml sEng in horse serum, linear flow rates varied
[10] = target: T2, endogenous sEng in pooled serum of pre-eclampsia patients (human); assay: column depletion from pooled pre-eclampsia serum, 0.8 mg antibody/ml beads
[11] = target: T1, soluble Endoglin (sEng), recombinant, as spiked or purified protein (human); assay: SEC and ELISA
[12] = target: T1, soluble Endoglin (sEng), recombinant, as spiked or purified protein (human); assay: depletion of sEng spiked in horse serum (60 ng/ml, 10 ml) by a 1 ml column of antibody covalently coupled at 0.2 mg per ml beads; sEng in input and flow-through by ELISA; linear flow rate varied
[13] = target: T1, soluble Endoglin (sEng), recombinant, as spiked or purified protein (human); assay: depletion of sEng spiked in human plasma by a 1 ml column with varying amounts of covalently coupled antibody; sEng in input and flow-through by ELISA
[14] = target: T1, soluble Endoglin (sEng), recombinant, as spiked or purified protein (human); assay: Protein-G Sepharose column depletion at 1 or 0.2 mg antibody per ml beads
[15] = target: T1, soluble Endoglin (sEng), recombinant, as spiked or purified protein (human); assay: CNBr-Sepharose column depletion of sEng

binding [1] | binding [2] | binding [3] | binding [4] | binding [5] | binding [6] | binding [7] | binding [8] | binding [9] | binding [10] | binding [11] | binding [12] | binding [13] | binding [14] | binding [15] | Binder
binds | binds | binds | binds | binds | binds | binds | binds | binds | binds | binds | binds | binds | – | – | chimeric anti-sEng antibody cENG10 (antibody, human IgG1, kappa, N297Q, V domains shown, Murine MAb 210 variable regions on human IgG1 / kappa constant regions; also called αEng; cENG10 (CHO-derived)) VH: EVQLEQSGPEVVKPGTSVKISCKTSGYTITEHTLHWIKQNQGKSLEWIGGINFDNGGTTYRQKFKDKATLTVDKSSSTAFMELRSLTSDDSAVYFCARRAYYYGSAFDYWGQGTTLTVSS VL: ENVLTQSPAIMSASLGEKVTMTCRASSSVNYVYWYQQKSDASPKLWIYYTSNLAPGVPARFSGSGSGNSYSLTISSMEGEDAATYYCQQFISFPYTFGGGTKLEIKR
– | – | – | – | – | – | – | – | – | – | – | – | – | binds | binds | MAb 210 (antibody, V domains shown, Murine monoclonal antibody from hybridoma; also called lead antibody) VH: EVQLEQSGPEVVKPGTSVKISCKTSGYTITEHTLHWIKQNQGKSLEWIGGINFDNGGTTYRQKFKDKATLTVDKSSSTAFMELRSLTSDDSAVYFCARRAYYYGSAFDYWGQGTTLTVSS VL: ENVLTQSPAIMSASLGEKVTMTCRASSSVNYVYWYQQKSDASPKLWIYYTSNLAPGVPARFSGSGSGNSYSLTISSMEGEDAATYYCQQFISFPYTFGGGTKLEIK
